Measurements published in US20060281118A1 (UNIVERSITY OF MEDICINE AND DENTISTRY OF NEW JERSEY, published 2006).
Results are given in words; binding and its absence hold for the method and conditions named. For part of these data: In cells and extracts the contact can be indirect. Some entries that bind do so weakly or less than the wild type. Where a sequence is shown, tags or fusion partners need not be part of it.

Columns and labels:
Rad4-HA (yeast) [1] = biological target: T1, Rad4-HA (yeast) (UniProt P14736); assay: GST pull-down from 35S-labelled yeast extracts, SDS-PAGE and fluorography (FIG. 1A, lane 2)
T1 sequence: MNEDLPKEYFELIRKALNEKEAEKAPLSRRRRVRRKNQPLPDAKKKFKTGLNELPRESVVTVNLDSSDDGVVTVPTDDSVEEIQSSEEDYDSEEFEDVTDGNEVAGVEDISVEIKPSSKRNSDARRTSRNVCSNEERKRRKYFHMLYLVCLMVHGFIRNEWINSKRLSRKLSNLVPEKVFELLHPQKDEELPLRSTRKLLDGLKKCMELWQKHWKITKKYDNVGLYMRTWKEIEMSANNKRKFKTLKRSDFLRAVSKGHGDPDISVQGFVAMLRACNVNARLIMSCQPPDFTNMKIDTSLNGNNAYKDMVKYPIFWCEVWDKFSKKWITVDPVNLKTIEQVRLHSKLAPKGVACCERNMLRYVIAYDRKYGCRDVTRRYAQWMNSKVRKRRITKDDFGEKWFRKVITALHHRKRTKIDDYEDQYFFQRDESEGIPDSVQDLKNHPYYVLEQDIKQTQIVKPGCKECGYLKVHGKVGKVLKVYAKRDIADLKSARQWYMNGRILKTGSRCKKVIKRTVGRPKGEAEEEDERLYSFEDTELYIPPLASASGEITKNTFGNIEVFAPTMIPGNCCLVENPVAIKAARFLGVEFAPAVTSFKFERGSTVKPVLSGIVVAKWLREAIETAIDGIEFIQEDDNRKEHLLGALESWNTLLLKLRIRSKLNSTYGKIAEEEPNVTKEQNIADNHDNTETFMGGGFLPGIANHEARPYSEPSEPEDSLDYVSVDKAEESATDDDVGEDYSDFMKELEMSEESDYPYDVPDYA

Rad4-HA (yeast) [2] = biological target: T1, Rad4-HA (yeast); assay: column fractionation, glutathione-Sepharose capture of fractions, immunoblot (FIG. 3)
Rad4-HA (yeast) [3] = biological target: T1, Rad4-HA (yeast); assay: co-purification (restated from Example 1)
Rad4-HA (yeast) [4] = biological target: T1, Rad4-HA (yeast); assay: Mono-Q then Mono-S chromatography, immunoblot (FIGS. 3A-3C, lanes 15-18)
Rad4-HA (yeast) [5] = biological target: T1, Rad4-HA (yeast); assay: gel filtration on Sephacryl S-200, immunoblot (FIGS. 3A-C, lane 2)
Rad4-HA (yeast) [6] = biological target: T1, Rad4-HA (yeast); assay: GST pull-down on glutathione-Sepharose from 35S-labelled yeast extracts, fluorography (FIG. 1A, lane 2)
[7] = biological target: T2, Irt1 fused to the activation domain of Gal4 (yeast) (UniProt P39955); assay: yeast two-hybrid, β-galactosidase reporter (FIG. 12)
T2 sequence (looked up): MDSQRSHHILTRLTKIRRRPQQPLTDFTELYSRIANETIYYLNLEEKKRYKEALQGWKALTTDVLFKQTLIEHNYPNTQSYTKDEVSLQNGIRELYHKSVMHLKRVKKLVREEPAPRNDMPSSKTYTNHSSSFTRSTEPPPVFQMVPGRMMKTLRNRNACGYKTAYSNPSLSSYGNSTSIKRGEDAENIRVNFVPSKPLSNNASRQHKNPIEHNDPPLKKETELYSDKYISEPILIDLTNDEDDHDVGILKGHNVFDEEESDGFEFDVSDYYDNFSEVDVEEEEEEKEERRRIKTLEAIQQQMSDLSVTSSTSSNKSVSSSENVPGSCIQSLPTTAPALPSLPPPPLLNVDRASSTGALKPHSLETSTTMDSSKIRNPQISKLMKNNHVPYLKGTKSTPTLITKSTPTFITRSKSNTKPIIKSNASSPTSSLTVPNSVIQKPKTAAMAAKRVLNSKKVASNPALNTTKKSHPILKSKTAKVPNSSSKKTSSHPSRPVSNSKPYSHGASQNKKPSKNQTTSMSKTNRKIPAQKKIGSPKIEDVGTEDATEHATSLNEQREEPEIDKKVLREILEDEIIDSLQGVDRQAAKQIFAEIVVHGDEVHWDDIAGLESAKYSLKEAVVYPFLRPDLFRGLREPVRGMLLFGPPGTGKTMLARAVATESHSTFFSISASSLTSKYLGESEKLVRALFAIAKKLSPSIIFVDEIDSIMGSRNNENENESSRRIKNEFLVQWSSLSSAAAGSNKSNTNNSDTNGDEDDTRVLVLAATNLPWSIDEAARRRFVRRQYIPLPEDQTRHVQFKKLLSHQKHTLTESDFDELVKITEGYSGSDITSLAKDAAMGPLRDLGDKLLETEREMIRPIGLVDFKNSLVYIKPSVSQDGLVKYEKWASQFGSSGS

[8] = biological target: T2, Irt1 fused to the activation domain of Gal4 (yeast); assay: yeast two-hybrid screen
[9] = biological target: T2, Irt1 fused to the activation domain of Gal4 (yeast); assay: yeast two-hybrid

Measured: binding

B1: GST-Rad23 (protein, Saccharomyces cerevisiae, UniProt P32628 1-398, looked up, not shown: a dimerising Fc or GST)
chain: MVSLTFKNFKKEKVPLDLEPSNTILETKTKLAQSISCEESQIKLIYSGKVLQDSKTVSECGLKDGDQVVFMVSQKKSTKTKVTEPPIAPESATTPGRENSTEASPSTDASAAPAATAPEGSQPQEEQTATTERTESASTPGFVVGTERNETIERIMEMGYQREEVERALRAAFNNPDRAVEYLLMGIPENLRQPEPQQQTAAAAEQPSTAATTAEQPAEDDLFAQAAQGGNASSGALGTTGGATDAAQGGPPGSIGLTVEDLLSLRQVVSGNPEALAPLLENISARYPQLREHIMANPEVFVSMLLEAVGDNMQDVMEGADDMVEGEDIEVTGEAAAAGLGQGEGEGSFQVDYTPEDDQAISRLCELGFERDLVIQVYFACDKNEEAAANILFSDHAD
not listed: [7] | [8] | [9]
binds: all other assays above

B2: lexA-Rad23p (protein, Saccharomyces cerevisiae, UniProt P32628 1-398, looked up, not shown: large carriers)
chain: B1 chain
binds: [7] | [8] | [9]
